Source: PubChem BioAssay AID488837 (National Center for Advancing Translational Sciences (NCATS), 2010)
Hit rate of the full screen: of about 330,000 compounds, about 20 (0.006%) were called active. Inconclusive results, whose numbers are uncertain, are shown with a selection of clear calls. The call rests on the fitted dose curve; in most records, active means well fitted inhibition curve with a large enough effect; inconclusive means small, poorly fitted or top-dose-only effect, or effect the other way; inactive means flat fitted curve, though single readings scatter. Potencies of inconclusive entries are doubtful fits and often do not repeat.

By UniProt entry, the sequences of proteins in these tests, tags left out. Where a name states a change or a piece, a line headed by the entry shows the natural chain unless it says otherwise.
UniProt O00167: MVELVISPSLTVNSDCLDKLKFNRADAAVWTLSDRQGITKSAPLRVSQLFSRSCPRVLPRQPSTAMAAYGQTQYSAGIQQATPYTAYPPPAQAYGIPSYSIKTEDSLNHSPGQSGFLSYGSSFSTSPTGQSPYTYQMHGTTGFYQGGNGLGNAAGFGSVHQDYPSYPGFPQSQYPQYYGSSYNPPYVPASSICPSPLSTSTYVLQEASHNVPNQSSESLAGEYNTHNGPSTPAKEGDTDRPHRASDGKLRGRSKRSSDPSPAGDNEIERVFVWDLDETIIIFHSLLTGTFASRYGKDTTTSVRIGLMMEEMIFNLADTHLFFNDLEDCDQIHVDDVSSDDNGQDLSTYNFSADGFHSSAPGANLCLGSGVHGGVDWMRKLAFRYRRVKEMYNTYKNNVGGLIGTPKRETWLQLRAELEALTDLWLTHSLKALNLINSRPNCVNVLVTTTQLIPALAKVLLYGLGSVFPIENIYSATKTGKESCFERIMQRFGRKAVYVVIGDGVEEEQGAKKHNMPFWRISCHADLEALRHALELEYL

Target: Protein phosphatase EYA2 (Homo sapiens) (UniProt O00167)
Assay: qHTS Assay for Inhibitors of the Phosphatase Activity of Eya2
Details: recombinant Eya2, OMFP fluorescence dephosphorylation (OMFP is methylfluorescein phosphate); activity, negative = inhibition: at 76.9 µM (top of the series) unless noted
Outline: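 Eya2 (0.2 uM) preincubated 10 min at ambient with compound, then OMFP substrate added at 50 uM; 10 min reaction in 50 mM HEPES pH 7.5, 50 mM NaCl, 5 uM MgCl2, 0.05% BSA, 1 mM DTT. Fluorescence read at Ex 485/Em 525 nm.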
On the % scale 0 is the no-effect control and ±100 the full control effect; potency means the concentration at half of the fitted maximal effect.

Compound	activity, negative = inhibition	Potency
CC(C)CC(=O)NC(Nc1ccccc1F)C(Cl)(Cl)Cl (stereo not given)	inactive: -4.61%	
Cc1ccc(C2=NN(C(=O)CCl)C(c3cccs3)C2)o1 (stereo not given)	inactive: 0.191%	
Cc1cc([N+](=O)[O-])nn1Cc1ccc(C(=O)N/N=C/c2ccc(O)cc2O)cc1	inactive: -2.4%	
Cc1ccc(C(=O)NNC(=O)c2ccc3ccccc3c2O)cc1		inconclusive: 89.1 µM [inhibitor, single point]
O=C(N/N=C/c1cccs1)c1cccc2cc[nH]c12		active: 25.1 µM
Cc1ccc2c(c1)/C(=C/c1ccccc1)C(=O)N2		inconclusive: 100 µM [inhibitor, single point]
CC(C)(C)OC(=O)N1Cc2cc3ccccc3nc2C1CO (stereo not given)	inconclusive: -33% [inhibitor]	
Cc1ccc(NC(=O)c2sc(N)nc2-c2ccc([N+](=O)[O-])cc2)cc1C		inconclusive: 20 µM [inhibitor, partial curve]
Cc1ccccc1/C=N/NC(=O)c1ccc(-n2cnnn2)cc1		inconclusive: 251 µM [inhibitor, partial curve, poor fit]
COc1ccc(-n2c(C)c(C(=O)O)c3cc(OC)c4ccccc4c32)cc1		inconclusive: 100 µM [inhibitor, single point]
Oc1cccc(Nc2ncnc3c2oc2ccccc23)c1		inconclusive: 89.1 µM [inhibitor, single point]
Cc1cc(C(C)(C)C)cc(C)c1C(=O)O		inconclusive: 100 µM [inhibitor, single point]
CCc1ccc(NC(=O)CSc2nc3cc(C(=O)OC)ccc3c(=O)n2Cc2ccco2)cc1		inconclusive: 112 µM [inhibitor, single point]
C/C(=N\NC(=O)c1ccc(CN2CCc3ccccc3C2)cc1)c1ccccc1O	inactive: -14.7%	
CCOC(=O)c1ccc(NC=C2C(=O)OC3(CCCCC3)OC2=O)cc1		inconclusive: 22.4 µM [inhibitor, single point]
O=[N+]([O-])c1cc(Cl)ccc1-c1nc(-c2ccncc2)no1		inconclusive: 100 µM [inhibitor, single point]
O=C(Cn1ncc2c([nH]c3ccccc32)c1=O)N1CCc2ccccc2C1		inconclusive: 14.1 µM [inhibitor, single point]
C=CC[n+]1c(/C=C2\C=Cc3cc(C)ccc3N2CC)ccc2ccccc21		inconclusive: 178 µM [inhibitor, partial curve]
COc1ccccc1C(=O)N=C1SC2CS(=O)(=O)CC2N1c1ccccc1 (stereo not given)		inconclusive: 25.1 µM [inhibitor, single point]
COc1ccccc1N1CCN(/N=C/C=C/c2ccccc2[N+](=O)[O-])CC1	inactive: -9.66%	
O=C(Nn1cnnc1)c1cc(Cl)cc(Cl)c1		inconclusive: 28.2 µM [inhibitor, partial curve]
O=c1c(C(c2ccc(Br)cc2)c2c(O)nc3n(c2=O)CCCS3)c(O)nc2n1CCCS2		inconclusive: 158 µM [inhibitor, partial curve, poor fit]
Cc1ccc(N2CCN(C(=O)c3ccccc3NC(=O)/C=C\C(=O)O)CC2)cc1	inactive: -18.4%	

Compound	activity, negative = inhibition	Potency
CCCOc1ccc(C(=O)N2CC3(CC(c4cccc(NC(=O)[C@@H]5CCC(=O)N5)c4)=NO3)C[C@H]2C(=O)NC2(C(N)=O)CC2)cc1 (stereo not given in full)		inconclusive: 141 µM [inhibitor, single point]
COc1cc(CNC2CCCC2)cc(Cl)c1OCc1ccccc1F	inactive: -1.32%	
CCOC(=O)c1c(C)[nH]c(O)c1C=Nc1ccc(Cl)cc1		inconclusive: 22.4 µM [inhibitor, single point]
CC1/C(=N/O)CC(c2ccco2)NC1c1ccco1 (stereo not given)	inactive: 0.915%	
Cc1[nH]c(=O)c(C#N)c(C)c1Cl		inconclusive: 100 µM [inhibitor, single point]
CNC(=O)Nc1ccccc1C(=O)Nc1ccccc1		inconclusive: 141 µM [inhibitor, partial curve, poor fit]
Cc1ccc(C(=O)O[C@H](C(=O)O)[C@H](OC(=O)c2ccc(C)cc2)C(=O)O)cc1		inconclusive: 141 µM [inhibitor, single point]
COc1ccccc1N1CCN(CCNC(=O)Nc2cccc(C)c2C)CC1	inactive: -14.4%	
CCOC(=O)N1CCN(Cc2nc3cc(NC(=O)CC)ccc3n2C)CC1		inconclusive: 100 µM [inhibitor, single point]
Cc1cc(=S)cc(C)n1CCCO	inactive: -33.8%	
O=S(=O)(Nc1ccc(-n2cnnn2)cc1)c1cccs1		inconclusive: 316 µM [inhibitor, partial curve]
O=C(O)CCC(=O)N1CCN(S(=O)(=O)c2ccc3ccccc3c2)CC1	inactive: 1.46%	
O=C(N/N=C/c1ccc2c(c1)OCO2)c1ccccn1	inactive: -6.72%	
O=C(COC(=O)c1cccnc1Cl)Nc1cc(S(=O)(=O)N2CCCCCC2)ccc1Cl		inconclusive: 5.01 µM [inhibitor, partial curve, poor fit]
CCOc1ccccc1CNS(=O)(=O)c1ccc2c(c1)C(C)(C)C(=O)N2C		inconclusive: 15.8 µM [inhibitor, single point]
CC(C)COc1ccc(-c2nnc(-c3ccncc3)o2)cc1	inactive: 12.8%	
CSCCC1C(C#N)=C(N)Oc2n[nH]c(-c3cccs3)c21 (stereo not given)	inactive: 20.1%	
CNC(=O)C(=O)Nc1ccc(C)cc1C		inconclusive: 79.4 µM [inhibitor, single point]
O=C(CN1CC(=O)Oc2ccccc21)OCC(=O)c1ccc(F)cc1	inactive: 9.32%	
Cc1ccc(NC(=S)NCCC(c2ccccc2)c2ccccc2)c(C)c1	inactive: 2.5%	
CC(=O)CCc1oc2ccc(C)cc2c1-c1ccc(C)o1	inactive: -1.75%	
COc1ccccc1-n1cc(-c2ccc([N+](=O)[O-])cc2)[nH]c1=S		inconclusive: 100 µM [inhibitor, single point]

10 entries from above, set out differently.
Compound,"activity, negative = inhibition",Potency
COc1ccc(-n2c(C)c(C(=O)O)c3cc(OC)c4ccccc4c32)cc1,,"inconclusive: 100 µM [inhibitor, single point]"
Oc1cccc(Nc2ncnc3c2oc2ccccc23)c1,,"inconclusive: 89.1 µM [inhibitor, single point]"
Cc1cc(C(C)(C)C)cc(C)c1C(=O)O,,"inconclusive: 100 µM [inhibitor, single point]"
CCc1ccc(NC(=O)CSc2nc3cc(C(=O)OC)ccc3c(=O)n2Cc2ccco2)cc1,,"inconclusive: 112 µM [inhibitor, single point]"
C/C(=N\NC(=O)c1ccc(CN2CCc3ccccc3C2)cc1)c1ccccc1O,inactive: -14.7%,
CCOC(=O)c1ccc(NC=C2C(=O)OC3(CCCCC3)OC2=O)cc1,,"inconclusive: 22.4 µM [inhibitor, single point]"
O=[N+]([O-])c1cc(Cl)ccc1-c1nc(-c2ccncc2)no1,,"inconclusive: 100 µM [inhibitor, single point]"
O=C(Cn1ncc2c([nH]c3ccccc32)c1=O)N1CCc2ccccc2C1,,"inconclusive: 14.1 µM [inhibitor, single point]"
C=CC[n+]1c(/C=C2\C=Cc3cc(C)ccc3N2CC)ccc2ccccc21,,"inconclusive: 178 µM [inhibitor, partial curve]"
COc1ccccc1C(=O)N=C1SC2CS(=O)(=O)CC2N1c1ccccc1 (stereo not given),,"inconclusive: 25.1 µM [inhibitor, single point]"
